# Laboratory results reported in the supplement of paper PMC8728848.
# The other results are listed elsewhere or left out.
# B1: PX9961K-bvu-480-28-480 (Bacteroides vulgatus) (protein)
# chain: NKIPTTMAFRTVTDVDNAVNGLYDLMSGSGYYGAAMFAYGDMKGDDMQSSEESGVCNTCYMFNHRPNSLNAGSLWGRPFYILREAWNILNAIAEGKIESGDEKKLNALKGETMAVIALCQFDLTRCFGYPYTKDKGASLGAPLIDHLVGTYENPPRSTVAQAYDFIIETLEEAVTLMSEEKNNGRMNKYAARALLARIYLYHDDNRKAFDLADQLIKDADTSGSYALYPHEKYVAAWSVEAKFGSESFFEIANSVDDTPGRDSWGYLLNWYGYQKGFVTQKYAEQMLADPGDVRGHLLEENKYAGKTVWWLYKLRGTDLKTAPLECNNVVLRLSEVYLIAAEAGCKLGGDAAVQGLGYLNEIVKRGNPDNEVTMADYTLDRVLDERSKELVGEGHRFFDLLRNGKTIVRKGGYHLPSVDEEVDWDFYKCVLPIPEDQFIFSPEMEQNPGYPKN
# Key:
# Experiment in all cases: glycan array binding signal (z-score within array); higher = stronger binding
# Conditions in all cases: glycan notation: IUPAC condensed, linker removed
# [1] = target: Gal(b1-4)GlcNAc(b1-2)Man(a1-6)[Man(a1-3)]Man(b1-4)GlcNAc(b1-4)GlcNAc
# How it was run: (§1)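 Glycan array binding is given as a within-array Z-score, which can be read as non-binding when negative. The arrays, 3228 of them, came from the Consortium for Functional Glycomics database and were retained only where the protein sequence was available. Z-scores were averaged across arrays of the same protein sequence at different concentrations or buffers and across linkers.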
# [2] = target: Gal(b1-4)GlcNAc(b1-2)[Gal(b1-4)GlcNAc(b1-4)]Man(a1-3)[Gal(b1-4)GlcNAc(b1-2)Man(a1-6)]Man(b1-4)GlcNAc(b1-4)GlcNAc
# How it was run: as §1
# [3] = target: Gal(b1-4)GlcNAc(b1-2)[Gal(b1-4)GlcNAc(b1-4)]Man(a1-3)[Gal(b1-4)GlcNAc(b1-2)[Gal(b1-4)GlcNAc(b1-6)]Man(a1-6)]Man(b1-4)GlcNAc(b1-4)GlcNAc
# How it was run: as §1
# [4] = target: Gal(b1-4)GlcNAc(b1-2)[Gal(b1-4)GlcNAc(b1-4)]Man(a1-3)[GlcNAc(b1-4)][Gal(b1-4)GlcNAc(b1-2)Man(a1-6)]Man(b1-4)GlcNAc(b1-4)GlcNAc
# How it was run: as §1
# [5] = target: Gal(b1-4)GlcNAc(b1-2)[Gal(b1-4)GlcNAc(b1-4)]Man(a1-3)[GlcNAc(b1-4)][Gal(b1-4)GlcNAc(b1-2)[Gal(b1-4)GlcNAc(b1-6)]Man(a1-6)]Man(b1-4)GlcNAc(b1-4)GlcNAc
# How it was run: as §1
# [6] = target: Gal(b1-4)GlcNAc(b1-2)[Gal(b1-4)GlcNAc(b1-6)]Man(a1-6)[Gal(b1-4)GlcNAc(b1-2)Man(a1-3)]Man(b1-4)GlcNAc(b1-4)GlcNAc
# How it was run: as §1
# [7] = target: Gal(b1-4)GlcNAc(b1-2)[Gal(b1-4)GlcNAc(b1-6)]Man(a1-6)[Gal(b1-4)GlcNAc(b1-2)Man(a1-3)]Man(b1-4)GlcNAc(b1-4)[Fuc(a1-6)]GlcNAc
# How it was run: as §1
# [8] = target: Gal(b1-4)GlcNAc(b1-2)[Gal(b1-4)GlcNAc(b1-6)]Man(a1-6)[GlcNAc(b1-4)][Gal(b1-4)GlcNAc(b1-2)Man(a1-3)]Man(b1-4)GlcNAc(b1-4)GlcNAc
# How it was run: as §1
# [9] = target: Gal(b1-4)GlcNAc(b1-2)[Gal(b1-4)GlcNAc(b1-6)]Man(a1-6)[GlcNAc(b1-4)][Gal(b1-4)GlcNAc(b1-2)[Gal(b1-4)GlcNAc(b1-4)]Man(a1-3)]Man(b1-4)GlcNAc(b1-4)[Fuc(a1-6)]GlcNAc
# How it was run: as §1
# [10] = target: Gal(b1-4)GlcNAc(b1-3)Gal(b1-3)GalNAc
# How it was run: as §1
# [11] = target: Gal(b1-4)GlcNAc(b1-3)Gal(b1-3)GlcNAc
# How it was run: as §1
# [12] = target: Gal(b1-4)GlcNAc(b1-3)Gal(b1-4)Glc
# How it was run: as §1
# [13] = target: Gal(b1-4)GlcNAc(b1-3)Gal(b1-4)GlcNAc
# How it was run: as §1
# [14] = target: Gal(b1-4)GlcNAc(b1-3)Gal(b1-4)GlcNAc(b1-2)Man(a1-3)[Gal(b1-4)GlcNAc(b1-3)Gal(b1-4)GlcNAc(b1-2)Man(a1-6)]Man(b1-4)GlcNAc(b1-4)GlcNAc
# How it was run: as §1
# [15] = target: Gal(b1-4)GlcNAc(b1-3)Gal(b1-4)GlcNAc(b1-2)Man(a1-3)[Gal(b1-4)GlcNAc(b1-3)Gal(b1-4)GlcNAc(b1-2)Man(a1-6)]Man(b1-4)GlcNAc(b1-4)[Fuc(a1-6)]GlcNAc
# How it was run: as §1
# [16] = target: Gal(b1-4)GlcNAc(b1-3)Gal(b1-4)GlcNAc(b1-2)[Gal(b1-4)GlcNAc(b1-3)Gal(b1-4)GlcNAc(b1-6)]Man(a1-6)[Gal(b1-4)GlcNAc(b1-3)Gal(b1-4)GlcNAc(b1-2)Man(a1-3)]Man(b1-4)GlcNAc(b1-4)GlcNAc
# How it was run: as §1
# [17] = target: Gal(b1-4)GlcNAc(b1-3)Gal(b1-4)GlcNAc(b1-2)[Gal(b1-4)GlcNAc(b1-3)Gal(b1-4)GlcNAc(b1-6)]Man(a1-6)[Gal(b1-4)GlcNAc(b1-3)Gal(b1-4)GlcNAc(b1-2)Man(a1-3)]Man(b1-4)GlcNAc(b1-4)[Fuc(a1-6)]GlcNAc
# How it was run: as §1
# [18] = target: Gal(b1-4)GlcNAc(b1-3)Gal(b1-4)GlcNAc(b1-3)Gal(b1-4)GlcNAc
# How it was run: as §1
# [19] = target: Gal(b1-4)GlcNAc(b1-3)Gal(b1-4)GlcNAc(b1-3)Gal(b1-4)GlcNAc(b1-2)Man(a1-3)[Gal(b1-4)GlcNAc(b1-3)Gal(b1-4)GlcNAc(b1-3)Gal(b1-4)GlcNAc(b1-2)Man(a1-6)]Man(b1-4)GlcNAc(b1-4)GlcNAc
# How it was run: as §1
# [20] = target: Gal(b1-4)GlcNAc(b1-3)Gal(b1-4)GlcNAc(b1-3)Gal(b1-4)GlcNAc(b1-2)Man(a1-3)[Gal(b1-4)GlcNAc(b1-3)Gal(b1-4)GlcNAc(b1-3)Gal(b1-4)GlcNAc(b1-2)Man(a1-6)]Man(b1-4)GlcNAc(b1-4)[Fuc(a1-6)]GlcNAc
# How it was run: as §1
# [21] = target: Gal(b1-4)GlcNAc(b1-3)Gal(b1-4)GlcNAc(b1-3)Gal(b1-4)GlcNAc(b1-2)[Gal(b1-4)GlcNAc(b1-3)Gal(b1-4)GlcNAc(b1-3)Gal(b1-4)GlcNAc(b1-6)]Man(a1-6)[Gal(b1-4)GlcNAc(b1-3)Gal(b1-4)GlcNAc(b1-3)Gal(b1-4)GlcNAc(b1-2)Man(a1-3)]Man(b1-4)GlcNAc(b1-4)[Fuc(a1-6)]GlcNAc
# How it was run: as §1
# [22] = target: Gal(b1-4)GlcNAc(b1-3)Gal(b1-4)GlcNAc(b1-3)Gal(b1-4)GlcNAc(b1-3)Gal(b1-4)GlcNAc(b1-2)Man(a1-3)[Gal(b1-4)GlcNAc(b1-3)Gal(b1-4)GlcNAc(b1-3)Gal(b1-4)GlcNAc(b1-3)Gal(b1-4)GlcNAc(b1-2)Man(a1-6)]Man(b1-4)GlcNAc(b1-4)GlcNAc
# How it was run: as §1
binder,measurement,setting,value
B1,glycan array binding signal (z-score),[1],-0.775
same,glycan array binding signal (z-score),[2],1.4
same,glycan array binding signal (z-score),[3],0.452
same,glycan array binding signal (z-score),[4],-0.122
same,glycan array binding signal (z-score),[5],0.328
same,glycan array binding signal (z-score),[6],0.246
same,glycan array binding signal (z-score),[7],0.228
same,glycan array binding signal (z-score),[8],-0.251
same,glycan array binding signal (z-score),[9],0.362
same,glycan array binding signal (z-score),[10],-0.538
same,glycan array binding signal (z-score),[11],-0.821
same,glycan array binding signal (z-score),[12],0.315
same,glycan array binding signal (z-score),[13],-0.349
same,glycan array binding signal (z-score),[14],0.765
same,glycan array binding signal (z-score),[15],-0.026
same,glycan array binding signal (z-score),[16],0.127
same,glycan array binding signal (z-score),[17],0.877
same,glycan array binding signal (z-score),[18],-0.742
same,glycan array binding signal (z-score),[19],0.62
same,glycan array binding signal (z-score),[20],0.206
same,glycan array binding signal (z-score),[21],0.943
same,glycan array binding signal (z-score),[22],0.26

# Part of the list above, tab-delimited.
binder	measurement	setting	value
B1	glycan array binding signal (z-score)	[4]	-0.122
same	glycan array binding signal (z-score)	[5]	0.328
